US20260139066A1 (VRIJE UNIVERSITEIT BRUSSEL, published 2026)
Results are given in words; binding and its absence hold for the method and conditions named. A result given as binding can be weak or reduced; the word gives no strength. Where a sequence is shown, tags or fusion partners need not be part of it.

Key:
[1] = target: canine urokinase plasminogen activator receptor, recombinant protein (canine); experiment: SPR sensorgrams, 150-0.62 nM
[2] = target: canine urokinase plasminogen activator receptor, recombinant protein (canine); experiment: BE-ELISA: bacterial extract on coated recombinant uPAR, anti-HA detection, OD405 ratio of coated to uncoated well
[3] = target: canine urokinase plasminogen activator receptor, recombinant protein (canine); experiment: SPR, purified sdAbs on recombinant uPAR
[4] = target: canine urokinase plasminogen activator receptor, recombinant protein (canine); experiment: SPR (Biacore T200), c uPAR immobilised on CM5 chip, sdAb injected in three-fold dilutions
[5] = target: canine urokinase plasminogen activator receptor, recombinant protein (canine); experiment: flow cytometry, 17 nM sdAb + anti-His-PE, c uPAR-transduced HEK293T cells

Measured: binding

B1: sdAb 15 (clone 5A4) with carboxy-terminal hexahistidine tag (VHH)
VHH: QVQLQESGGGWVQPGGSLRLSCAASGFTLDYYGIGWFRQAPGKEREGVSCISSSDGSTYYADSVKGRFTISRDNAKNTVYLQMNSLKPEDTAVYYCATRGASCYYTGSYSLGYDYWGQGTQVTVSS
notes: Lead compound; C-terminal 6His for purified-protein SPR; koff screen used bacterial extracts of the pMECS-GG construct; also called sdAb15.6His; Nr 15
binds: [1] | [2] | [3] | [4] | [5]

B2: sdAb 16 (clone 5A5) with carboxy-terminal hexahistidine tag (VHH)
VHH: QVQLQESGGGLVQPGGSLRLSCAISGFTLDYYGIGWFRQAPGKEREGVSCISSSDGSTYYADSVKGRFTISRDNAKNTVYLQMNSLKPEDTAVYYCATRGASCYYSGSYSLGYDYWGQGTQVTVSS
notes: C-terminal 6His for purified-protein SPR; koff screen used bacterial extracts; also called Nr 16
binds: [2] | [3] | [5]

B3: sdAb 17 (clone 5B7) with carboxy-terminal hexahistidine tag (VHH)
VHH: QVQLQESGGGLVQPGGSLRLSCAVSGSTLEYYGIGWFRQAPGKEREGVSCISSSDGSTYYADSVKGRFTISRDNAKNTVYLQMNSLKPEDTAVYYCATRGASCYYTGSYSLGYDYWGQGTQVTVSS
notes: C-terminal 6His for purified-protein SPR; koff screen used bacterial extracts; also called Nr 17
binds: [2] | [3] | [5]

B4: sdAb 18 (clone 5H2) with carboxy-terminal hexahistidine tag (VHH)
VHH: QVQLQESGGGLAQPGGSLRLSCTASGFTSDYYGIGWFRQAPGKEREGVSCISSSDGSTYYADSVKGRFTISRDNAKNTVYLQMNSLKPEDTAVYYCATRGASCYYTGSYSLGYDYWGQGTQVTVSS
notes: C-terminal 6His for purified-protein SPR; koff screen used bacterial extracts; also called Nr 18
binds: [2] | [3] | [5]
